According to article PMC10688980:

Target: TAP-tagged Wdr70 of S. pombe (S. pombe)
Test: affinity purification with mass spectrometry; TAP-tagged spWdr70 from S. pombe with Ddb1 deleted; soluble extract bound to rabbit IgG Dynabeads, TEV cleavage, gradient SDS-PAGE, gel bands identified by MALDI-TOF

B1: Pcu4 (Cullin4 homolog) (protein, UniProt O14122 1-734)
chain: MPPEAKRIVVKGFDPRKSRQRQETYYVTMIDRLNMALQVVMAGLGLKTGYQELYSGVENLTRADQASRCFNILQHHMSSGIQLLKDSAESFIQLEGTETDTNACTVVVGCWNKWLERVEIVQNIFYYMDKTFLSHHPDYPTIEELSLSLFREKLMAVKNIQIPFLNSLLQSFENLHSSKSTDHAYLQDAMLMLHRTEMYSSVFVPMYLVMLSRFYDTESSQKIQELPLEEYLEYAMSSLEREDAYVEKFDIVRDKKSIRETVQRCLITSHLDTLTKGISQFIEKRDAHSCKLLYALLQFNHETEYLIQPWSDCLVDVGFKLVNDESKDDTLVQELLSFHKFLQVVVDESFLHDETLSYAMRKAFETFINGAKGSQREAPARLIAKYIDYLLRVGEQASGGKPLKEVFSEILDLFRYIASKDIFEAYYKLDIAKRLLLNKSASAQNELMLLDMLKKTCGSQFTHSLEGMFRDVNISKEFTSSFRHSKAAHNLHRDLYVNVLSQAYWPSYPESHIRLPDDMQQDLDCFEKFYLSKQVGKKISWYASLGHCIVKARFPLGNKELSISLFQACVLLQFNNCLGGEGISYQDLKKSTELSDIDLTRTLQSLSCARIRPLVMVPKSKKPSPDTMFYVNEKFTDKLYRVKINQIYLKEERQENSDVQEQVVRDRQFELQASIVRVMKQKEKMKHDDLVQYVINNVKDRGIPLVSDVKTAIEKLLEKEYLEREDNDIYTYVT
Q: B1 was tested. Which binding did it give?
A: Its binding is “binds”.

These are yes or no findings as the source states them, for the method shown. Binding seen in cells or lysates may run through a third protein. These calls come from enrichment with a bait or labelling near it, and not all partners need be listed.
